# In the supplement of paper PMC3334620:
# Whole data set: some 33,000 sequences, median “E-score (-0.5 to 0.5)” near -0.016, cut for the highest 2% near 0.3. The list shows a part of the results.
# Biological target: T1, Yer184c (UniProt P39961)
# T1 sequence: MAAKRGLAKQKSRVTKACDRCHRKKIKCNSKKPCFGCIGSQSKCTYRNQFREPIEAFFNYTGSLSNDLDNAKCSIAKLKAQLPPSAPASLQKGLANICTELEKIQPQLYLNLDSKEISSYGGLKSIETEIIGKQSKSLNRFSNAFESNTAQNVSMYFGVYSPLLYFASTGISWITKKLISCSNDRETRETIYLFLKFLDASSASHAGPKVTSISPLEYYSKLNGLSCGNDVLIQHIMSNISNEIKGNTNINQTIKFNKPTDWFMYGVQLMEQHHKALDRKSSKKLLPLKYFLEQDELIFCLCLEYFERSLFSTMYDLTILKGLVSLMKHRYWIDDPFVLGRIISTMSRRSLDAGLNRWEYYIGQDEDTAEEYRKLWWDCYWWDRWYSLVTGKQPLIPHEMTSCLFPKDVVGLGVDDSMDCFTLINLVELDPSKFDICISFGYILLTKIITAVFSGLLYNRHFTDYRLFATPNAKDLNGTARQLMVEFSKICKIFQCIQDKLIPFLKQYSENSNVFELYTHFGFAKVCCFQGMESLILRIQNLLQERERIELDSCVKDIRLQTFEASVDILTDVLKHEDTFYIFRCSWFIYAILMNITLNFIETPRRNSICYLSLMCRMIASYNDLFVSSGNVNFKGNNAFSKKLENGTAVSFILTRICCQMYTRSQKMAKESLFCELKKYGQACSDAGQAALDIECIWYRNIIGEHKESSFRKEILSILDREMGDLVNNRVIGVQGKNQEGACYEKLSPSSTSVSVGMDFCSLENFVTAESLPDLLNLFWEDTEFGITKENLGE
# Experiment: PBM E-score (8-mer binding enrichment) (E-score (-0.5 to 0.5)); higher = stronger / more preferred TF binding
# Settings: protein concentration: 100 nM; construct: GST-full length
# Method in brief: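 Full-length yeast transcription factors or their DNA-binding domains, GST-tagged and expressed with PURExpress, were applied at about 100-200 nM to universal all-10-mer Agilent arrays. These arrays had been made double-stranded by primer extension on fresh or once-stripped slides. Detection used fluorescent anti-GST, normalisation used masliner, and E-scores for ungapped eight-base words pooled with reverse complements came from the Universal PBM Analysis Suite.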
row,Sequence,PBM E-score
1,GTCTAAGA,0.0677
2,GTAGGTTA,-0.00416
3,GTAATGAC,-0.0867
4,GTTTTACA,-0.015
5,CTCTATTC,-0.0103
6,ATCCACGC,-0.275
7,ACGTGCTA,-0.0967
8,CACTGCGA,-0.0568
9,CTTCTCAA,-0.0199
10,AGTAATGG,0.0286
11,ATGGTTGG,-0.0798
12,AGGACCCG,0.0965
13,ATTTCGTG,0.12
14,GAACCTTA,0.18
15,CTTCTACA,-0.00324
16,CGCCAACA,0.0135
17,CTTGTAAA,0.0315
18,GCAGGGAA,0.14
19,AATCGGAA,0.374
20,AGCTTCCT,0.0609
21,AAAACCGT,0.118
22,GGGGAGGA,-0.259
23,ATGATCAG,0.0525
24,TCGCATCA,0.146
25,GAGTATCA,-0.0416

row,Sequence,PBM E-score
1,CAGTAGTA,0.0825
2,ACCACCAA,-0.125
3,ATGTGAAA,0.118
4,GCTGTAGA,0.101
5,CTCAGTGA,-0.172
6,AAGTGCTC,-0.229
7,ACAATTCT,0.0476
8,CTAACAGC,-0.00761
9,TCGTCCCA,-0.0806
10,ATAGCCGA,0.299
11,AACGCAGT,-0.081
12,ATTTGTAA,0.14
13,CAGCCCTA,-0.0337
14,AATATATA,0.267
15,GGGTTCAC,0.00273
16,CATAGACC,-0.0691
17,ATGCTGTA,0.074
18,GAGTATCC,0.0881
19,GGGATCTA,-0.0536
20,TATGTTGA,0.0275
21,CCAGGACA,-0.169
22,GACGTCCA,-0.0411
23,GATGGTCC,-0.144
24,ACGCAATA,0.135
25,GCTCGAAC,0.034

row,Sequence,PBM E-score
1,AGTCAAGG,-0.159
2,ACACTTAC,0.0858
3,GGCTCCAC,-0.096
4,GCGAGGAA,0.183
5,CTAGAACC,-0.00303
6,ATCCGCAT,0.111
7,GGGCCGAA,0.243
8,AAACTTGT,0.198
9,CGATCTCA,-0.0159
10,CGGTTAGA,0.0556
11,CCCCGAGG,0.0698
12,AACGCCCG,-0.015
13,CATGAAGC,0.101
14,ACATTGCA,-0.152
15,ACGTTCTG,-0.0311
16,AGAGGTTG,-0.19
17,GTACCATA,-0.0946
18,AAATAGAC,-0.00964
19,CGTACGTC,-0.245
20,AGTTCGCG,0.0747
21,ATAAAGCG,0.134
22,CAGGGTGC,-0.248
23,AAGCAACA,-0.0711
24,CCGTCCGC,-0.107
25,GATGAGAA,0.00569

# As entered above:
# AGTCAAGG | PBM E-score: -0.159
# CTAGAACC | PBM E-score: -0.00303

# Quoted at random: 5 records from the list.
row,Sequence,PBM E-score
22,CAGGGTGC,-0.248
14,ACATTGCA,-0.152
20,AGTTCGCG,0.0747
6,ATCCGCAT,0.111
5,CTAGAACC,-0.00303

# More records:

row,Sequence,PBM E-score
1,AACAGAGG,-0.169
2,ACTCACAC,-0.0217
3,GTCCAAAC,-0.0319
4,ATAAATCC,0.104
5,AACAAAGT,0.148
6,CCCGATTC,0.109
7,ATTTGAAC,0.209
8,ACACTGAC,-0.0345
9,CCCGCCAC,-0.0706
10,TACGCCAA,-0.142
11,AAAGGGCG,-0.113
12,CTTCGTCA,0.0711
13,CGATACAC,-0.00964
14,CGCCGAGA,0.346
15,AATATATG,0.153
16,AGTACTCC,-0.189
17,CGTCAGCA,0.016
18,ACACGGGC,0.023
19,AATTTTCT,0.0125
20,AACAGTCT,-0.0276
21,GATCTAAC,0.119
22,CCCCTCCG,-0.00064
23,AACCAATA,0.136
24,AAGTGTTG,0.162
25,TACAGTCA,-0.0508

row,Sequence,PBM E-score
1,AACGAACC,0.0449
2,TGCCCCCA,-0.41
3,CCAGTTGC,-0.131
4,ATCATTAA,0.307
5,ACAGCGAA,0.117
6,TGAGAGCA,-0.0441
7,ACCGTTCG,0.0905
8,CATCAGCA,-0.123
9,CGTGGCTA,-0.18
10,GATCCATC,-0.00243
11,CATTGGGA,-0.157
12,AATCAATA,0.237
13,ACGAAGAC,-0.219
14,CGCTCTGA,-0.0592
15,CCCCGGTC,-0.0178
16,CCTTCGAC,-0.158
17,GATCTCTA,-0.0569
18,ACTTAACG,-0.204
19,CACGCTGC,-0.212
20,CAAGAGGC,-0.146
21,AGGTCCAC,-0.141
22,AAAGCGGT,-0.0566
23,ATGTTCGC,-0.144
24,CAGTGTTC,0.147
25,AAATCTGT,-0.0223

row,Sequence,PBM E-score
1,AAAATAGT,0.073
2,CCACTGCG,-0.00892
3,ATCTCGTC,0.147
4,AGCCCAAG,-0.228
5,GAGCGGCC,0.0204
6,ACAAGCGA,-0.015
7,CCTGATAC,0.041
8,CGCCTTTA,-0.078
9,CAATTATA,0.209
10,CGGTAGTA,0.0519
11,CCAGTCTA,-0.0793
12,GCTTGTGA,-0.257
13,GCTGCCTA,-0.0537
14,ACGGGTGC,-0.0553
15,AAATCTAC,0.138
16,ACCTGTCA,-0.0979
17,CACCTATG,-0.284
18,GCGTGCTA,-0.328
19,ATAGATGG,-0.223
20,CTGCTCTA,-0.105
21,CATGTTCC,-0.0899
22,ACACCTAG,-0.287
23,CGGCACGA,0.207
24,GATCTACA,0.177
25,ACAGACCT,0.0177

# Part of the list above in another layout:
row	Sequence	PBM E-score
17	CACCTATG	-0.284
18	GCGTGCTA	-0.328

# The results go on.

row,Sequence,PBM E-score
1,ACGGTTGA,-0.0221
2,AGTACCCG,0.122
3,AAAATTCA,0.277
4,CAAAGGTC,-0.123
5,AATCGGAT,0.327
6,CCAGTCGA,-0.0181
7,GGGAACGA,-0.198
8,AGTCTTCG,0.0497
9,CCCTGTCA,-0.279
10,GGTTGTTA,0.108
11,CGAACCAG,0.238
12,AATGCAAT,-0.256
13,AGGGCAGA,-0.295
14,ACCCTGGA,-0.382
15,TCTACCAA,-0.133
16,ATCGAGCG,0.0386
17,CCCACAAA,0.136
18,CTTACGGA,0.0868
19,CGGAGAAG,0.106
20,AAATAGTG,0.21
21,AGTAAGAT,0.014
22,AACTCTCA,0.0144
